Results reported in publication doi:10.1101/2022.07.20.500667.
No constants are given. Whether binding was seen depends on the method and setting. Sequences can lack the tags named with a protein.

Tests used:
[1] = target: arginyltransferase 1 (ATE1) from Saccharomyces cerevisiae, apo (Saccharomyces cerevisiae) (UniProt P16639); assay: SEC
[2] = target: arginyltransferase 1 (ATE1) from Saccharomyces cerevisiae, apo (Saccharomyces cerevisiae) (UniProt P16639); assay: SEC-MALS

B1: arginyltransferase 1 (ATE1) from Saccharomyces cerevisiae, apo (enzyme, UniProt P16639 1-502)
chain: MSDRFVIWAPSMHNEPAAKCGYCHGNKGGNMDQLFALDSWAHRYMNKMDVVKIENCTIGSFVEHMDVATYDRMCNMGFRRSGKFLYKVDPLRNCCRLYTIRTAPQELNMTKELKKCISRFATRITSEDYCPAAVASSDFVGKIVNAEMNSKTFYTRFEPALYSEEKYHLFVKYQEKVHQDYNNSPKSFKRFLCDTPFGPEAVLGTQESWEQLNNWQRMKPGEKLKHMGPVHECYYYEGKLIAITVSDILPSGISSVYFIWDPDYSKWSLGKLSALRDLAIIQRTNLQYYYLGYYIEDCPKMNYKANYGAEVLDVCHSKYIPLKPIQDMISRGKLFVIGEEETKVTKELYLVDSETGRGEGFPTDNVVKYKNIAEEIYGVGGCAFKSANESALELKELYGIPYEEEDLDTIYHLKEHNGHAPNGIPNVVPGLLPLWELLDIMQSGKITDLEGRLFLFEIETEGIRPLINFYSEPPNVKKRICDVIRLFGFETCMKAVILYSEQ
- binding [1]: no binding
- binding [2]: no binding (tested: 2-8 mg/mL)
